These results are taken from PMC5717197, “Mechanistic insight into TRIP13-catalyzed Mad2 structural transition and spindle checkpoint silencing” (Nature Communications, 2017).

Assay [1] has as its target p31^comet–Mad2–MBP1 (human). Put plainly: pull-down; Mad2-binding assay: as the dissociation assay but with 1 mM ATPγS in place of ATP; MBP1 or Cdc20N beads loaded with His6-Mad2, then TRIP13 (500 nM) and ΔN35-p31comet (1 µM); Reaction Buffer, room temperature; SDS-PAGE and Coomassie; both purified.
The target of assay [2] is p31^comet–Mad2–Cdc20N (human). The description is as above.
Assay [3] concerns the target p31^comet–Mad2–MBP1 (human). Put plainly: pull-down; Mad2 dissociation assay: MBP1 or Cdc20N coupled to SulfoLink resin, loaded with His6-Mad2 (0.5 mg/ml), washed, then TRIP13 and ΔN35-p31comet with 1 mM ATP for 30-60 min; Reaction Buffer (25 mM Tris pH 7.5, 200 mM NaCl, 10 mM MgCl2, 1 mM DTT, 5% glycerol, 0.05% Tween), room temperature; bound proteins by SDS-PAGE and Coomassie; both purified.

Results are given in words; binding and its absence hold for the method and conditions named. Binding calls can cover weak binding; strength is not graded here.

B1: TRIP13 wild type (enzyme, human, UniProt Q15645 1-432, looked up)
chain: MDEAVGDLKQALPCVAESPTVHVEVHQRGSSTAKKEDINLSVRKLLNRHNIVFGDYTWTEFDEPFLTRNVQSVSIIDTELKVKDSQPIDLSACTVALHIFQLNEDGPSSENLEEETENIIAANHWVLPAAEFHGLWDSLVYDVEVKSHLLDYVMTTLLFSDKNVNSNLITWNRVVLLHGPPGTGKTSLCKALAQKLTIRLSSRYRYGQLIEINSHSLFSKWFSESGKLVTKMFQKIQDLIDDKDALVFVLIDEVESLTAARNACRAGTEPSDAIRVVNAVLTQIDQIKRHSNVVILTTSNITEKIDVAFVDRADIKQYIGPPSAAAIFKIYLSCLEELMKCQIIYPRQQLLTLRELEMIGFIENNVSKLSLLLNDISRKSEGLSGRVLRKLPFLAHALYVQAPTVTIEGFLQALSLAVDKQFEERKKLAAYI
notes: TRIP13, human; its own AUC and gel filtration show no discrete oligomer; also called TRIP13 WT; source: E. coli BL21 (DE3), purified (Ni-NTA, TEV, Resource Q, Superdex 200); not shown: His6, N-terminal, cleaved
Regarding B1, the binding result in assay [1] and in assay [2] was “binds” in each case.

B2: TRIP13 E253A (enzyme, UniProt Q15645 1-432)
chain: MDEAVGDLKQALPCVAESPTVHVEVHQRGSSTAKKEDINLSVRKLLNRHNIVFGDYTWTEFDEPFLTRNVQSVSIIDTELKVKDSQPIDLSACTVALHIFQLNEDGPSSENLEEETENIIAANHWVLPAAEFHGLWDSLVYDVEVKSHLLDYVMTTLLFSDKNVNSNLITWNRVVLLHGPPGTGKTSLCKALAQKLTIRLSSRYRYGQLIEINSHSLFSKWFSESGKLVTKMFQKIQDLIDDKDALVFVLIDAVESLTAARNACRAGTEPSDAIRVVNAVLTQIDQIKRHSNVVILTTSNITEKIDVAFVDRADIKQYIGPPSAAAIFKIYLSCLEELMKCQIIYPRQQLLTLRELEMIGFIENNVSKLSLLLNDISRKSEGLSGRVLRKLPFLAHALYVQAPTVTIEGFLQALSLAVDKQFEERKKLAAYI
As for B2, in assay [3], the binding result was “binds”.

B3: TRIP13 N278A (enzyme, UniProt Q15645 1-432)
chain: MDEAVGDLKQALPCVAESPTVHVEVHQRGSSTAKKEDINLSVRKLLNRHNIVFGDYTWTEFDEPFLTRNVQSVSIIDTELKVKDSQPIDLSACTVALHIFQLNEDGPSSENLEEETENIIAANHWVLPAAEFHGLWDSLVYDVEVKSHLLDYVMTTLLFSDKNVNSNLITWNRVVLLHGPPGTGKTSLCKALAQKLTIRLSSRYRYGQLIEINSHSLFSKWFSESGKLVTKMFQKIQDLIDDKDALVFVLIDEVESLTAARNACRAGTEPSDAIRVVAAVLTQIDQIKRHSNVVILTTSNITEKIDVAFVDRADIKQYIGPPSAAAIFKIYLSCLEELMKCQIIYPRQQLLTLRELEMIGFIENNVSKLSLLLNDISRKSEGLSGRVLRKLPFLAHALYVQAPTVTIEGFLQALSLAVDKQFEERKKLAAYI
B3: the binding entry in assay [1] was “binds”.

B4: TRIP13 W221A (enzyme, UniProt Q15645 1-432)
chain: MDEAVGDLKQALPCVAESPTVHVEVHQRGSSTAKKEDINLSVRKLLNRHNIVFGDYTWTEFDEPFLTRNVQSVSIIDTELKVKDSQPIDLSACTVALHIFQLNEDGPSSENLEEETENIIAANHWVLPAAEFHGLWDSLVYDVEVKSHLLDYVMTTLLFSDKNVNSNLITWNRVVLLHGPPGTGKTSLCKALAQKLTIRLSSRYRYGQLIEINSHSLFSKAFSESGKLVTKMFQKIQDLIDDKDALVFVLIDEVESLTAARNACRAGTEPSDAIRVVNAVLTQIDQIKRHSNVVILTTSNITEKIDVAFVDRADIKQYIGPPSAAAIFKIYLSCLEELMKCQIIYPRQQLLTLRELEMIGFIENNVSKLSLLLNDISRKSEGLSGRVLRKLPFLAHALYVQAPTVTIEGFLQALSLAVDKQFEERKKLAAYI
Turning to B4, the binding entry in assay [1] is given as “no binding (tested: 500 nM)”; in assay [2], “no binding”.

B5: TRIP13 G320A (enzyme, human, UniProt Q15645 1-432, looked up)
chain: MDEAVGDLKQALPCVAESPTVHVEVHQRGSSTAKKEDINLSVRKLLNRHNIVFGDYTWTEFDEPFLTRNVQSVSIIDTELKVKDSQPIDLSACTVALHIFQLNEDGPSSENLEEETENIIAANHWVLPAAEFHGLWDSLVYDVEVKSHLLDYVMTTLLFSDKNVNSNLITWNRVVLLHGPPGTGKTSLCKALAQKLTIRLSSRYRYGQLIEINSHSLFSKWFSESGKLVTKMFQKIQDLIDDKDALVFVLIDEVESLTAARNACRAGTEPSDAIRVVNAVLTQIDQIKRHSNVVILTTSNITEKIDVAFVDRADIKQYIAPPSAAAIFKIYLSCLEELMKCQIIYPRQQLLTLRELEMIGFIENNVSKLSLLLNDISRKSEGLSGRVLRKLPFLAHALYVQAPTVTIEGFLQALSLAVDKQFEERKKLAAYI
notes: TRIP13, human; source: E. coli BL21 (DE3), purified (Ni-NTA, TEV, Resource Q, Superdex 200); not shown: His6, N-terminal, cleaved
For B5, the binding entry in assay [1] and in assay [2] was “binds” in each case.
